{"source": "PubChem BioAssay AID1259308, NCATS | 2017", "aim": "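Knock-downs that increase output of a recombinant reporter protein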 (primary screen)", "system": "human HEK293 embryonic kidney cells stably expressing firefly luciferase (HEK-CMV-Luc2-Hygro)", "reagent": "single siRNA against human genes, 0.8 pmol siRNA per well", "duration": "72 h", "read-out": "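Reporter luminescence and viable-cell signal on separate replicate plates, given as percent of non-targeting control and median/MAD z-scores, plus per-cell luciferase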", "scale": "total luciferase, z-score and total luciferase, % of control: higher = more reporter protein produced", "hit rule": "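An siRNA counts as active if its total luciferase robust z-score exceeds 3; genes with two or more such siRNAs out of three were retested with fresh siRNAs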", "calls": "active = raised luciferase; inactive = no rise", "note": "The deposit covers about 59,000 reagents; shown is a random part of them. Over the whole deposit, about 1,510 (2.6%) were called active. 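Calls use total luciferase alone and ignore viability, so some active siRNAs may act by altering cell number.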 Unmarked entries are inactive. Reagents against one gene are numbered here. Not all columns of the deposit are shown."}
{"gene":"HTR1F","siRNA no.":1,"total luciferase, z-score":-0.588,"total luciferase, % of control":70.2}
{"gene":"HTR1F","siRNA no.":2,"total luciferase, z-score":-1.22,"total luciferase, % of control":57.7}
{"gene":"HTR1F","siRNA no.":3,"total luciferase, z-score":-0.494,"total luciferase, % of control":72.1}
{"gene":"PPP1R2P4","siRNA no.":1,"total luciferase, z-score":-1.06,"total luciferase, % of control":60.9}
{"gene":"PPP1R2P4","siRNA no.":2,"total luciferase, z-score":-0.685,"total luciferase, % of control":68.3}
{"gene":"PPP1R2P4","siRNA no.":3,"total luciferase, z-score":-1.91,"total luciferase, % of control":43.9}
{"gene":"MFHAS1","siRNA no.":1,"total luciferase, z-score":-0.7,"total luciferase, % of control":68}
{"gene":"MFHAS1","siRNA no.":2,"total luciferase, z-score":-0.548,"total luciferase, % of control":71}
{"gene":"MFHAS1","siRNA no.":3,"total luciferase, z-score":-1.54,"total luciferase, % of control":51.3}
{"gene":"H3C1","siRNA no.":1,"total luciferase, z-score":0.735,"total luciferase, % of control":96.5}
{"gene":"H3C1","siRNA no.":2,"total luciferase, z-score":-0.897,"total luciferase, % of control":64.1}
{"gene":"H3C1","siRNA no.":3,"total luciferase, z-score":0.122,"total luciferase, % of control":84.3}
{"gene":"TRIM17","siRNA no.":1,"total luciferase, z-score":1.68,"total luciferase, % of control":115}
{"gene":"TRIM17","siRNA no.":2,"total luciferase, z-score":0.441,"total luciferase, % of control":90.7}
{"gene":"TRIM17","siRNA no.":3,"total luciferase, z-score":1.17,"total luciferase, % of control":105}
{"gene":"FANCA","siRNA no.":1,"total luciferase, z-score":1.35,"total luciferase, % of control":109}
{"gene":"FANCA","siRNA no.":2,"total luciferase, z-score":-0.216,"total luciferase, % of control":77.6}
{"gene":"FANCA","siRNA no.":3,"total luciferase, z-score":2.55,"total luciferase, % of control":133}

Records listed so far whose target name starts with F or f:
{"gene":"FANCA","siRNA no.":1,"total luciferase, z-score":1.35,"total luciferase, % of control":109}
{"gene":"FANCA","siRNA no.":2,"total luciferase, z-score":-0.216,"total luciferase, % of control":77.6}
{"gene":"FANCA","siRNA no.":3,"total luciferase, z-score":2.55,"total luciferase, % of control":133}

More reagents follow.
{"gene":"B4GALT6","siRNA no.":1,"total luciferase, z-score":-0.15,"total luciferase, % of control":78.9}
{"gene":"B4GALT6","siRNA no.":2,"total luciferase, z-score":-0.588,"total luciferase, % of control":70.2}
{"gene":"B4GALT6","siRNA no.":3,"total luciferase, z-score":0.569,"total luciferase, % of control":93.2}
{"gene":"PXDC1","siRNA no.":1,"total luciferase, z-score":0.62,"total luciferase, % of control":94.2}
{"gene":"PXDC1","siRNA no.":2,"total luciferase, z-score":2.5,"total luciferase, % of control":132}
{"gene":"PXDC1","siRNA no.":3,"total luciferase, z-score":-0.403,"total luciferase, % of control":73.9}
{"gene":"TMEM120A","siRNA no.":1,"total luciferase, z-score":-0.586,"total luciferase, % of control":70.2}
{"gene":"TMEM120A","siRNA no.":2,"total luciferase, z-score":-0.0543,"total luciferase, % of control":80.8}
{"gene":"TMEM120A","siRNA no.":3,"total luciferase, z-score":-0.149,"total luciferase, % of control":78.9}
{"gene":"CASP10","siRNA no.":1,"total luciferase, z-score":-0.576,"total luciferase, % of control":70.4}
{"gene":"CASP10","siRNA no.":2,"total luciferase, z-score":-0.462,"total luciferase, % of control":72.7}
{"gene":"CASP10","siRNA no.":3,"total luciferase, z-score":-0.349,"total luciferase, % of control":74.9}
{"gene":"NDUFA2","siRNA no.":1,"total luciferase, z-score":-2.04,"total luciferase, % of control":41.3}
{"gene":"NDUFA2","siRNA no.":2,"total luciferase, z-score":0.85,"total luciferase, % of control":98.8}
{"gene":"NDUFA2","siRNA no.":3,"total luciferase, z-score":-1.19,"total luciferase, % of control":58.2}
